Here are results for two molecules from US20040106120A1, “Diagnosis and treatment of disease” (priority 2000, published 2004).

Series [1] has as its system eczema lesional and non-lesional skin. Briefly: Affymetrix oligonucleotide array gene expression in eczema, involved and uninvolved skin compared to normal skin. More on the design: species or system human; key: ++: normally expressed; +++: strongly expressed; ++++: highly expressed; +down-regulation. The note with it: for Expression level Involved: eczema lesional skin (involved); for Expression level Uninvolved: eczema non-lesional skin (uninvolved).

Series [2] concerns psoriatic lesional and non-lesional skin. Briefly: Affymetrix oligonucleotide array gene expression in psoriasis, involved and uninvolved skin compared to normal skin. Set-up: species or system human; key: ++: normally expressed; +++: strongly expressed; ++++: highly expressed; +down-regulation. The note with it: protease inhibitor genes.

B1: SLPI: Secretory Leukoprotease Inhibitor protein added to cultured skin equivalent (protein, UniProt P03973 26-132, looked up)
Antileukoproteinase: SGKSFKAGVCPPKKSAQCLRYKKPECQSDWQCPGKKRCCPDTCGIKCLDPVDTPNPTRRKPGKCPVTYGQCLMLNPPNFCEMDGQCKRDLKCCMGMCGKSCVSPVKA
In the case of B1, the “Expression level Involved” value is listed as “+” in series [1] (protease inhibitor genes) and “++++” in series [2] (psoriatic lesional skin (involved)). In addition, the entries for the “Expression level Uninvolved” value in series [1] (protease inhibitor genes) and in series [2] (psoriatic non-lesional skin (uninvolved)) were “++” and “+++”, respectively.

B2: SCCE: recombinant Stratum Corneum Chymotryptic Enzyme, activated with agarose-bound trypsin (protein, UniProt P49862 30-253, looked up)
Kallikrein-7: IIDGAPCARGSHPWQVALLSGNQLHCGGVLVNERWVLTAAHCKMNEYTVHLGSDTLGDRRAQRIKASKSFRHPGYSTQTHVNDLMLVKLNSQARLSSMVKKVRLPSRCEPPGTTCTVSGWGTTTSPDVTFPSDLMCVDVKLISPQDCTKVYKDLLENSMLCAGIPDSKKNACNGDSGGPLVCRGTLQGLVSWGTFPCGQPNDPGVYTQVCKFTKWINDTMKKHR
modifications: activated with trypsin
As for B2, in series [1] (protease genes), the “Expression level Involved” value is “++++” and the “Expression level Uninvolved” value is “+++”.
